A value given as a limit tells only on which side of the number the result lay.

This series is described as follows: general procedure: Fmoc solid-phase peptide synthesis; trityl chloride resin; HATU/HOAt/DIPEA. To be noted: whole synthesis.

As to “[sc,sc(Boc-KS(tBu)R(Pbf)W(Boc)- D(OtBu)E)]-OH”, the “crude purity (method not given)” value was above 90%.
With [sc,sc(KSRWDE)]-K-C-OH, the “final purity (method not given)” value is listed as above 90%.

The values are drawn from article PMC7648758 (Nature Communications, 2020).
